According to patent US20050222012A1:
These are yes or no findings as the source states them, for the method shown. Some results given as binding are weak or reduced against the parent protein; the word gives no strength.

T1: Biotinylated AF9, C-terminal 368 aa of human AF9 made by coupled in vitro transcription and translation (human) (UniProt P42568)
T1 sequence (chain, Biotinylated (positions not stated)): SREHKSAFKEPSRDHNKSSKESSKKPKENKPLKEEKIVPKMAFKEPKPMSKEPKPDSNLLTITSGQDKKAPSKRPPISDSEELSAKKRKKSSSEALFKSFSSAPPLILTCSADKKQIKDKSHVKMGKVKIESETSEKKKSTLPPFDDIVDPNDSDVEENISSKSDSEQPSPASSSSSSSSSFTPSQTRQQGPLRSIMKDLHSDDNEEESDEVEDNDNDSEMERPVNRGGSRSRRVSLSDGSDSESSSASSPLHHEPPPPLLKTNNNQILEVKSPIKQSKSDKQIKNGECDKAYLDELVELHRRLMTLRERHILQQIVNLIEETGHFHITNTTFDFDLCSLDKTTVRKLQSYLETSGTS


Experiments:
[1] = target: T1, Biotinylated AF9, C-terminal 368 aa of human AF9 made by coupled in vitro transcription and translation (human); experiment: FIG. 2A legend, competition for AF9 against GST-AF4
[2] = target: T1, Biotinylated AF9, C-terminal 368 aa of human AF9 made by coupled in vitro transcription and translation (human); experiment: enzyme-linked competition assay, 20 µg/ml peptide, AF9 on plate-bound GST-AF4(749-775)
[3] = target: T1, Biotinylated AF9, C-terminal 368 aa of human AF9 made by coupled in vitro transcription and translation (human); experiment: GST pull-down competition against GST-AF4(749-775)
[4] = target: T1, Biotinylated AF9, C-terminal 368 aa of human AF9 made by coupled in vitro transcription and translation (human); experiment: FIG. 2B legend, competition for AF9 against GST-AF4
[5] = target: T1, Biotinylated AF9, C-terminal 368 aa of human AF9 made by coupled in vitro transcription and translation (human); experiment: in vitro competition assays against GST-AF4(749-775)

binding [1]	binding [2]	binding [3]	binding [4]	binding [5]	Binder
binds	binds	–	–	–	LWVKIDLDLL [… (Leu-Trp-Val-Lys-Ile-Asp-Leu-Asp-Leu-Leu)]
binds	binds	binds	binds	binds	RQIKWFQNRRMKWKKLWVKIDLDLLSRVP
binds	binds	–	–	–	LWVKIDLDLLSR [… (Leu-Trp-Val-Lys-Ile-Asp-Leu-Asp-Leu-Leu-Ser-Arg)]
